Results are given in words; binding and its absence hold for the method and conditions named. Binding calls can cover weak binding; strength is not graded here. For some of these results: Where a sequence is shown, tags or fusion partners need not be part of it.

Assay [1] concerns the target T1, KIF20A-RBD-529-665 fragment (mouse) (UniProt P97329).
T1 sequence: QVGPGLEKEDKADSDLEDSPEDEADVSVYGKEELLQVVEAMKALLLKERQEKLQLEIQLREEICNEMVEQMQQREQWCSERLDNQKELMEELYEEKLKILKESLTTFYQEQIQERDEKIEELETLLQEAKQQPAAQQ
The experiment in a line: two-hybrid; S. cerevisiae reporter strain L40 co-transformed with plasmids for the two fusion proteins; LexA fusions of KIF20A domains; growth on medium lacking histidine (-W -L -H).

For assay [2], the target named is T2, KIF20A tail domain (529-887) (mouse) (UniProt P97329).
T2 sequence: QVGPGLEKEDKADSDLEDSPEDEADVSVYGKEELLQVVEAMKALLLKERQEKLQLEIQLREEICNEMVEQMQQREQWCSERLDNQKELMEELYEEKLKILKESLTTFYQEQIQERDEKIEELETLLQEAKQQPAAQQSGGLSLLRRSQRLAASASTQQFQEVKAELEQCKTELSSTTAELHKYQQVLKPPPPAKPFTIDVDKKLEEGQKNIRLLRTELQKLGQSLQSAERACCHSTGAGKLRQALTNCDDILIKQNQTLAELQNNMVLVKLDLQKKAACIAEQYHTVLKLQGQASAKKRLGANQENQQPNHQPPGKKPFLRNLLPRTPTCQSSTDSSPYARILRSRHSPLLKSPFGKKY
The description is as above.

The target of assay [3] is GST-Myosin II-1148-1652 (human). The experiment in a line: ELISA; solid-phase assay: 96-well plates coated with 10 µg GST-GFP, GST-Myosin II-1148-1652 or GST-RAB6A:GTP; 0-40 µg 6xHis-RAB6:GTP or 6xHis-KIF20A-529-665 added; 20 mM Hepes pH 7.5, 100 mM NaCl, 5 mM MgCl2; detection with anti-6xHis antibodies, absorbance at 450 nm; both purified.

As to “KIF20A-529-665-K629W-S631W (from UniProt P97329) (domain or fragment)”, the binding entry in assay [1] is recorded as “binds”.

Regarding “Tail domain of Myosin II (1147-1653 fragment of human myosin IIA heavy chain) (domain or fragment)”, the binding entry in assay [2] and in assay [1] was “binds” throughout.

B1: 6xHis-KIF20A-RBD-529-665 (domain or fragment, UniProt P97329 529-665)
chain: QVGPGLEKEDKADSDLEDSPEDEADVSVYGKEELLQVVEAMKALLLKERQEKLQLEIQLREEICNEMVEQMQQREQWCSERLDNQKELMEELYEEKLKILKESLTTFYQEQIQERDEKIEELETLLQEAKQQPAAQQ
Regarding B1, the binding entry in assay [3] was “binds”.
